Results: patent publication US20080254465

The chains behind the UniProt entries cited, without tags or fusion partners. Residues count along the entry.
UniProt P08047, 2-785: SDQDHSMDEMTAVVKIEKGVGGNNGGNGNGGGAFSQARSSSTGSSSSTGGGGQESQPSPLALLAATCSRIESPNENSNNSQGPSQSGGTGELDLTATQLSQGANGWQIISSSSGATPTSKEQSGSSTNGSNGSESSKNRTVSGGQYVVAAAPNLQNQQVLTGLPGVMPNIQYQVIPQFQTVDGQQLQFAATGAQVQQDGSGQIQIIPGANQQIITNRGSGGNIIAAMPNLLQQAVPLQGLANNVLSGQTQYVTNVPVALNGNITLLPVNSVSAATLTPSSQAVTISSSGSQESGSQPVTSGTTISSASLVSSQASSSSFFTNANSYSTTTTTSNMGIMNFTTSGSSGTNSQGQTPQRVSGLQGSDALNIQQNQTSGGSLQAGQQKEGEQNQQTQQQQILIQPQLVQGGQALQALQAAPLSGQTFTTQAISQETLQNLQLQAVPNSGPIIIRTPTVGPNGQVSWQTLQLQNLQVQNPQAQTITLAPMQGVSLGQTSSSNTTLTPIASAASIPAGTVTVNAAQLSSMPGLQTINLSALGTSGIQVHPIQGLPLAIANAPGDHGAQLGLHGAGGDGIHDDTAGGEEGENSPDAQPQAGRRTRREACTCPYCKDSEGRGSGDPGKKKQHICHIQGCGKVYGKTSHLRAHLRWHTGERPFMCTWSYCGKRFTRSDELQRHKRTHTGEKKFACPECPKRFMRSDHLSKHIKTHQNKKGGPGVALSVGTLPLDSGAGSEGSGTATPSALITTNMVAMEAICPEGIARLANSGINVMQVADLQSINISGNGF

Experiments:
[1] = biological target: SP-1 (HeLa extract) (Homo sapiens) (UniProt P08047); test: footprint; details: protein in an extract; protein details: HeLa cell extract; label: 5'-ruthenium, 3'-biotin on SEQ 3 strand
[2] = test system: NF-kB (HeLa nuclear extract) (Homo sapiens); test: footprint; details: protein in an extract, protein details: HeLa nuclear extract, Promega, label: 5'-RuBpy, 3'-biotin on SEQ 1 strand

“GATCGAACTGACCGCCCGCGGCCCGT (double strand) [SP-1 consensus substrate]”: binds [1].
“AGTTGAGGGGACTTTCCCAGGC (double strand) [NF-kB consensus substrate, all phosphodiester]”: binds ([2]; similar specificity, lower specific ECL signals).
“AGTTGAGGGGACTTTCCCAGGC (double strand) [NF-kB consensus substrate, phosphorothioate]”: binds ([2]; PS within bracketed nucleotides AGTTGAGG (5') and CCCAGGC (3') of the labelled strand, specific ECL 744155, reduced to 0 by 100-fold unlabelled NF-kB consensus DNA).

At least one result comes from cells or an extract, where the contact may be indirect. For part of these data: Construct, isoform or probe ends are uncertain for at least one entry.
